Measurements reported in patent US20150291521, “PYRROL-1-YL BENZOIC ACID DERIVATIVES USEFUL AS MYC INHIBITORS” (DANA-FARBER CANCER INSTITUTE, INC., published 2015).
For at least one entry, the source does not settle the construct or the ends of the probe.

Chains of the proteins cited; added tags and fusions are not shown. Chains listed by the source or under a name are the forms on record and can include a tag or linker.
MITF/MITF homodimer, one chain, as listed by the source: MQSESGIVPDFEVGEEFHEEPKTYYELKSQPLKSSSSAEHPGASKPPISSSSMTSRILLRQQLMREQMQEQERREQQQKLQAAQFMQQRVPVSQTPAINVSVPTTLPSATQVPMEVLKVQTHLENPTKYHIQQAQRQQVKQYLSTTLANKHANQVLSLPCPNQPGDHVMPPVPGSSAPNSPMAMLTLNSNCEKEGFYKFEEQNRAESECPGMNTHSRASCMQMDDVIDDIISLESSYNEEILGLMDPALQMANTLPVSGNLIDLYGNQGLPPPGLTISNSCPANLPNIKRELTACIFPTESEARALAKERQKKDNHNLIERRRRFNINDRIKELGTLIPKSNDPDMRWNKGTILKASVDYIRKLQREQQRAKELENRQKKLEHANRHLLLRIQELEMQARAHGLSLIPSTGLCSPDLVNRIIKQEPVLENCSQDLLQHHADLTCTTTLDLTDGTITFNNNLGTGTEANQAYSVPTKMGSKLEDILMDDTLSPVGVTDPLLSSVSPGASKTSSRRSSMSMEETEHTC

System: MITF/MITF homodimer
Assay: EMSA
Conditions: MITF/MITF/Ebox complex; disrupted by compounds 79, 92, 101; purified recombinant protein; label: 5' biotin-triethyleneglycol

GGAAGCAGACCACGTGGTCTGCTTCC (double strand) [Ebox DNA]
binding result: binds
